Binding signal data for 1 sequence are collected here from paper PMC5996148.

Some test systems named below: ARL6 (human); ARL6IP2 (human); ARL8B (human); ARL9 (human); ARMC7 (human); ARMC8 (human); ARRDC3 (human); ART4 (human).
Common to all, as to assay: protein microarray (ProtoArray v5.0), streptavidin-Alexa Fluor 647
What all share (conditions): 3'-biotin; 20 mM Tris (pH 7.5), 5 mM MgCl2, 100 mM KCl, 0.1% Tween-20, A/T-rich and random oligonucleotide blockers; temperature not stated; high values mean tight binding

The target in the next test is T1, ARMC1 (UniProt Q9NVT9).
T1 sequence: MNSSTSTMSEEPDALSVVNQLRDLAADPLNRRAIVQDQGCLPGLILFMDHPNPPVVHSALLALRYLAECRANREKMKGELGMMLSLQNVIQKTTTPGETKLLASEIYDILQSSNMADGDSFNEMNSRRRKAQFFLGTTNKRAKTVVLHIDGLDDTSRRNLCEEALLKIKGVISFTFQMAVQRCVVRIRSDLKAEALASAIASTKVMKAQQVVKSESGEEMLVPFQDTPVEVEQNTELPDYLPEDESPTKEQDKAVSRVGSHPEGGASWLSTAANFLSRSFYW

In the next test the target is ARPC5 (UniProt O15511).

Some of the results follow. For some of these results: The exact form of the protein is not confirmed.

Regarding “GGGAGGCTGAGGCAGG [G4-1 biotinylated (PQS2)]”, the binding signal in the test with ARL6 (human) is -0.345 z-score; in the test on ARL6IP2 (human) it was -0.312 z-score; in the test with ARL8B (human) it was -0.326 z-score; with ARL9 (human) it was -0.336 z-score; in the test with ARMC1, -0.28 z-score; in the test on ARMC7 (human), -0.325 z-score. Besides, the binding signal was -0.307 z-score in the test with ARMC8 (human), -0.299 z-score with ARPC5, -0.323 z-score in the test on ARRDC3 (human) and -0.266 z-score with ART4 (human).
